Laboratory results as given in PMC3245618.
Results are given in words; binding and its absence hold for the method and conditions named. In cells and extracts the contact can be indirect. Some entries that bind do so weakly or less than the wild type.

Amino acid sequences for entries named in this document (tags omitted).
UniProt P83916: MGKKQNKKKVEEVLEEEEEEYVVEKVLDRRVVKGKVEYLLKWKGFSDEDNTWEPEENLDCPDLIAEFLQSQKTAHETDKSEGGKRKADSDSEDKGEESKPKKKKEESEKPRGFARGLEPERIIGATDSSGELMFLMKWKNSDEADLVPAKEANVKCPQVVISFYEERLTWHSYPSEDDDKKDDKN
UniProt Q13263: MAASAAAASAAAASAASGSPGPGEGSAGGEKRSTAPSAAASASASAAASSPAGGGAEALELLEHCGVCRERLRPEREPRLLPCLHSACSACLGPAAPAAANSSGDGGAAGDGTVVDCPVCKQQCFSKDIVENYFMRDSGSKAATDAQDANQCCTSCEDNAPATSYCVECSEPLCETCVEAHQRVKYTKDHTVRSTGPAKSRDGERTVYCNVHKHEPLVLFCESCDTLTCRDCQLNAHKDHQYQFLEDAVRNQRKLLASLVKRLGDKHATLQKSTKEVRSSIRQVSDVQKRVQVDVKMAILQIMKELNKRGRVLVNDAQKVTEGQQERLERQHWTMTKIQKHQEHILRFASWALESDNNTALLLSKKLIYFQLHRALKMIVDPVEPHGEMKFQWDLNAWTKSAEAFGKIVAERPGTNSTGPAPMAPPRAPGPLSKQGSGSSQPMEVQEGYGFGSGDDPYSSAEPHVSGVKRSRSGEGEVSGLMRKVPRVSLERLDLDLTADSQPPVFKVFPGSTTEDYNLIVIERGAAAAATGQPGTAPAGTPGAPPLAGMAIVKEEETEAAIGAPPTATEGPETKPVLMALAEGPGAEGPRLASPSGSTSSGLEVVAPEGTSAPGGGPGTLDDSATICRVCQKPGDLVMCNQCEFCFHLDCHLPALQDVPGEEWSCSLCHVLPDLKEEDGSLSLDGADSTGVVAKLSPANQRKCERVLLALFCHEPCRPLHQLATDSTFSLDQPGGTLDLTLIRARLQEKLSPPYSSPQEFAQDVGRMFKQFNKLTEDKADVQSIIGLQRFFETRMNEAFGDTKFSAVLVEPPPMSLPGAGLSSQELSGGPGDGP
UniProt Q13547: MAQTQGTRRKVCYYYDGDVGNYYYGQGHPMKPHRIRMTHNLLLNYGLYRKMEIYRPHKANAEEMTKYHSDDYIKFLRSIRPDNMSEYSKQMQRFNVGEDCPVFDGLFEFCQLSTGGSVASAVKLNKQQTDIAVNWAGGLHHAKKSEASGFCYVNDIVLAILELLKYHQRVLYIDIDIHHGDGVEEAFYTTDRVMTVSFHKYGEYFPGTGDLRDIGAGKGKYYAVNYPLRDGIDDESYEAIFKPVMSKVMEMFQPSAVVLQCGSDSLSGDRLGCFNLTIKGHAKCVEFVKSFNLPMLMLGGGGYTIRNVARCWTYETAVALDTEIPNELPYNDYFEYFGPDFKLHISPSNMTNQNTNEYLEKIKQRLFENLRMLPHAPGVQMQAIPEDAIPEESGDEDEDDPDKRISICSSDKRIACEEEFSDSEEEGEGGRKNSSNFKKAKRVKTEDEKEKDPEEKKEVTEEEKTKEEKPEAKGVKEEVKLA
UniProt Q00987: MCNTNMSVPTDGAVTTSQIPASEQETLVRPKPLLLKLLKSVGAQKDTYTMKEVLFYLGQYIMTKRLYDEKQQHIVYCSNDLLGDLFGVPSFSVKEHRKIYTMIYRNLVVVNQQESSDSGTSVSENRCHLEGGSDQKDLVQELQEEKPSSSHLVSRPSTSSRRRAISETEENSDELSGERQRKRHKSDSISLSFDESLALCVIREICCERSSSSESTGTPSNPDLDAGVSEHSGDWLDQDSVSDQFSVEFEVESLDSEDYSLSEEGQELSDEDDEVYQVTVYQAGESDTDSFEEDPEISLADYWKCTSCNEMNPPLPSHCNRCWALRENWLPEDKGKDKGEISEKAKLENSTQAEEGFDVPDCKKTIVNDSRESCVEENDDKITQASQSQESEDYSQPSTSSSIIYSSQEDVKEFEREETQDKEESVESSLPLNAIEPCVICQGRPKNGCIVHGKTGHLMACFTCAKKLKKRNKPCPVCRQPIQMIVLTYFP

How the values were obtained:
[1] = molecular target: GST-HP1β (heterochromatin protein 1β) (UniProt P83916); assay: pull-down; recombinant GST-HP1β as bait; cell extracts from U2OS cells expressing GFP-KAP1 versions; only the target purified
[2] = molecular target: GFP-KAP1 (Krüppel-associated box domain-associated protein 1), wild type, expressed in HEK293 cells (human) (UniProt Q13263); assay: co-IP; GFP-KAP1 immunoprecipitated from transfected HEK293 cells; cells treated with 5 μM etoposide for 4 h with or without 20 μM KU55933 (ATMi) or 50 nM AZD7762; partners checked on western blot

**Q.** How did the binding [1] turn out when “GFP-KAP1 wild type, stably expressed in U2OS cells (from UniProt Q13263 1-835)” was run?
**A.** binds

**Q.** How did the binding [2] turn out when HDAC1 (from UniProt Q13547 1-482) was run?
**A.** binds

**Q.** With MDM2 (from UniProt Q00987 1-491) as the substance, how does the binding [2] read?
**A.** binds
